The values that follow come from PubChem BioAssay AID340 (DTP/NCI, 2004).

The test deals with CD2F1 mice, ip reticulum cell sarcoma, survival T/C. Briefly: NCI In Vivo Anticancer Drug Screen. Data for tumor model Reticulum Cell Sarcoma (Kelley Mouse) (intraperitoneal) in CD2F1 (CDF1) mice. To be noted: T/C endpoint: median survival time, schedule: Q01DX010 (ip), vehicle: saline, higher T/C = longer survival. Here is the method: The antitumor activity of compounds was measured in mice bearing transplantable tumors. Survival or tumor size were measured and the results are expressed as the measurement made in the treated group (T) divided by the measurement made in the vehicle treated control group (C). The tumor model used in this assay is Reticulum Cell Sarcoma (Kelley Mouse) (intraperitoneal) in CD2F1 (CDF1) mice

The list is a part of this screen's results and no random one: its compounds were picked by chemical class. Other doses and runs of a compound may be missing. T/C gives the treated animals as a percentage of the vehicle group. For survival time, the PubChem record calls one and a half times the control and up active, and a quarter to a half above the control has no call in these data; cut-offs in other NCI protocols can differ. Some T/C values are marked as having no survivor count here; that says nothing about deaths at the dose. Schedule codes are those of the source, read here as Q, the interval in days (D) or hours (H), X, the number of doses. Brackets with × stand for listed records that agree. Some entries were tested several times; the results are listed from low to high.

Take `NC1CCCCC1.NP(=O)(O)N(CCCl)CCCl`: the T/C reads like this: (dose: 15.6 mg/kg/injection) 257 % of control [survivor count not shown]; (dose: 31.3 mg/kg/injection) 292 % of control [survivor count not shown]; (dose: 62.5 mg/kg/injection) 135 % of control [survivor count not shown].

In the case of `NC(Cc1cccc(N(CCCl)CCCl)c1)C(=O)O` (stereo unspecified), the T/C runs as follows: (dose: 1.25 mg/kg/injection) 118 % of control [survivor count not shown]; (dose: 2.5 mg/kg/injection) 103 % of control [survivor count not shown].

As for `O=C(O)CN(CCCl)CCCl`, the T/C is 103 % of control [survivor count not shown] (dose: 0.63 mg/kg/injection); 106 [survivor count not shown] and 109 % of control [survivor count not shown] (dose: 1.25 mg/kg/injection); 103 [survivor count not shown] and 116 % of control [survivor count not shown] (dose: 2.5 mg/kg/injection); 106 % of control [survivor count not shown] (dose: 5.0 mg/kg/injection).

For `CC(C(=O)O)N(CCCl)CCCl` (stereo unspecified), the T/C is, setting by setting: (dose: 0.5 mg/kg/injection) 106 % of control [survivor count not shown]; (dose: 1.0 mg/kg/injection) 100 [survivor count not shown] and 116 % of control [survivor count not shown]; (dose: 2.0 mg/kg/injection) 106 [survivor count not shown] and 119 % of control [survivor count not shown]; (dose: 4.0 mg/kg/injection) 103 [survivor count not shown] and 106 % of control [survivor count not shown].

Turning to `ClCCN(CCCl)Cc1nc2ccccc2[nH]1`, the T/C is 103 [survivor count not shown] and 112 % of control [survivor count not shown] (dose: 1.25 mg/kg/injection); 106 [survivor count not shown] and 112 % of control [survivor count not shown] (dose: 2.5 mg/kg/injection); 115 [survivor count not shown] and 142 % of control [survivor count not shown] (dose: 5.0 mg/kg/injection); 100 % of control [survivor count not shown] (dose: 10.0 mg/kg/injection).

Take `ClCCNCCCl`: the T/C is, setting by setting: (dose: 18.8 mg/kg/injection) 100 [survivor count not shown] and 109 % of control [survivor count not shown]; (dose: 37.5 mg/kg/injection) 96 % of control [survivor count not shown] (2×); (dose: 75.0 mg/kg/injection) 93 [survivor count not shown] and 109 % of control [survivor count not shown]; (dose: 150.0 mg/kg/injection) 93 % of control [survivor count not shown].
